This is an account of results in PMC13546301.

Chains of the proteins cited; added tags and fusions are not shown. Lines headed by an entry give the natural chain unless they say otherwise; changes in a name come on top. Residues count along the entry.
UniProt B0V2N1, residues 30-1907: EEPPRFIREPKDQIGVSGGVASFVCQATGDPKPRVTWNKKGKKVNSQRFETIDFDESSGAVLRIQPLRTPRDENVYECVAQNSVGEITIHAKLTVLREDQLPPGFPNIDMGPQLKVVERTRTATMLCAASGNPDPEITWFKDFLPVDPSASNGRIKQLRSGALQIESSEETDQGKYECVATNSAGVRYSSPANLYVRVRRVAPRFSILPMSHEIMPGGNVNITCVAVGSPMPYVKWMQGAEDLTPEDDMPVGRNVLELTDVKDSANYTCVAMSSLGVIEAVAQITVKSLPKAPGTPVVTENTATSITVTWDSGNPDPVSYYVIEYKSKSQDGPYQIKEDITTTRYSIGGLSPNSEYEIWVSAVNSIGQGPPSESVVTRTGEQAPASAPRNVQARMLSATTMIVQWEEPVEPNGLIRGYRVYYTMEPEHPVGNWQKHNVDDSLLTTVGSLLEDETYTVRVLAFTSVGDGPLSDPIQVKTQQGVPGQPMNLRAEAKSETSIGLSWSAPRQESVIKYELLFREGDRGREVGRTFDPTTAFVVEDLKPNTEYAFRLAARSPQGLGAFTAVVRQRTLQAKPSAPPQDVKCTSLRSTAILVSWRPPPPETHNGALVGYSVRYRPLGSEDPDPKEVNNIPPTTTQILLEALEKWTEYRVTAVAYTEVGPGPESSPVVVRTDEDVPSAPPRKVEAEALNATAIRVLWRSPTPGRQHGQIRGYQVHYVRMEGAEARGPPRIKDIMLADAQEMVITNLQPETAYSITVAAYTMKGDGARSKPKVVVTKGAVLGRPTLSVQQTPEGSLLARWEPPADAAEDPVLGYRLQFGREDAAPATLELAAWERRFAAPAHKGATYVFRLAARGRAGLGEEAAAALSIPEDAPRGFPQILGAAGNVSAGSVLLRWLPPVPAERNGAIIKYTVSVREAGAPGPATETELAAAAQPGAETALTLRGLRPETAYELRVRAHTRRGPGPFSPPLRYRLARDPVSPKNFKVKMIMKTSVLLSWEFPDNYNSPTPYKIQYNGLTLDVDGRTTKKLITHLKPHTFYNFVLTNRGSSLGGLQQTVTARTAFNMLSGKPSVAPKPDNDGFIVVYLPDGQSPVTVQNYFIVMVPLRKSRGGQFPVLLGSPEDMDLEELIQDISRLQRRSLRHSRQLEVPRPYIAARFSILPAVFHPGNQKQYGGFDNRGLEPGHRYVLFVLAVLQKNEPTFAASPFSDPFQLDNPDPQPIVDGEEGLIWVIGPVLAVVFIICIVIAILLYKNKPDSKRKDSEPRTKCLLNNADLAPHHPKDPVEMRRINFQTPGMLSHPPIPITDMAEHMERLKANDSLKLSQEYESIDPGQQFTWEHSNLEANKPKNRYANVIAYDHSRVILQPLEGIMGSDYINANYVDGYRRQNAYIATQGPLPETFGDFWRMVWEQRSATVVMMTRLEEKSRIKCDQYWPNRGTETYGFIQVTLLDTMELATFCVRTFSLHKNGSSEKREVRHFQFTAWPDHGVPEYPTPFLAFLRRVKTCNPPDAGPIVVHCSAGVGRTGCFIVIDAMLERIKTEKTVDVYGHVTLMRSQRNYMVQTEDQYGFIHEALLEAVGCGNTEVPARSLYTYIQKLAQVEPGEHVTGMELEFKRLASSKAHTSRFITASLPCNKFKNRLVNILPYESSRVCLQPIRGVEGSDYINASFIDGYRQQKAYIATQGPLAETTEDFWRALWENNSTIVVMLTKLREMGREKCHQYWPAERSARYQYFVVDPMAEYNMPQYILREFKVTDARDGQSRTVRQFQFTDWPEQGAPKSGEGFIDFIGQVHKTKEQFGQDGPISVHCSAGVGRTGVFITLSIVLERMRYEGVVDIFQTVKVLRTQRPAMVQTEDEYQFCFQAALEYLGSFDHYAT
UniProt P61215: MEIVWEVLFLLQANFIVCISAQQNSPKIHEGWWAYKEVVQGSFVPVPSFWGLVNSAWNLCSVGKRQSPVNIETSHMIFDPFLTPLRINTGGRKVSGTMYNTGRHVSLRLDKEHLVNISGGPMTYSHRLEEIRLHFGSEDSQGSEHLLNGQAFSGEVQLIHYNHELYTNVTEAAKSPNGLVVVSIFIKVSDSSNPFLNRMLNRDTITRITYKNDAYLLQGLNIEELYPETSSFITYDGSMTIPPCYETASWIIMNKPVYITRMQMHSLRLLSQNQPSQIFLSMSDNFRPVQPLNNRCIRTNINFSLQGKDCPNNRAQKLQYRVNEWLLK
UniProt O88998, residues 17-485: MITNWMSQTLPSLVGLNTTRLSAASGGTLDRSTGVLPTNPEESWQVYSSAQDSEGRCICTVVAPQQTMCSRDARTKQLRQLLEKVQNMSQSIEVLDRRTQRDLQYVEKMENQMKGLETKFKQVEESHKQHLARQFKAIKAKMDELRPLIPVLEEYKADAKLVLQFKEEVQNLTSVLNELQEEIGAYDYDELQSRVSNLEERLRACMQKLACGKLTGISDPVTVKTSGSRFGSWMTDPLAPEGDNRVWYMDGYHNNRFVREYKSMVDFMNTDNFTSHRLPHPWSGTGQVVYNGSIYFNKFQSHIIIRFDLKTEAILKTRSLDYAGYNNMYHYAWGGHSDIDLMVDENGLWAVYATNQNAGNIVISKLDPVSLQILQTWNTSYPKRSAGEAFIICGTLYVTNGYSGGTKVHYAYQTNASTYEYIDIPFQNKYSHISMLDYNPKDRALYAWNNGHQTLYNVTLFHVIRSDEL
UniProt Q9Z2W9, residues 23-888: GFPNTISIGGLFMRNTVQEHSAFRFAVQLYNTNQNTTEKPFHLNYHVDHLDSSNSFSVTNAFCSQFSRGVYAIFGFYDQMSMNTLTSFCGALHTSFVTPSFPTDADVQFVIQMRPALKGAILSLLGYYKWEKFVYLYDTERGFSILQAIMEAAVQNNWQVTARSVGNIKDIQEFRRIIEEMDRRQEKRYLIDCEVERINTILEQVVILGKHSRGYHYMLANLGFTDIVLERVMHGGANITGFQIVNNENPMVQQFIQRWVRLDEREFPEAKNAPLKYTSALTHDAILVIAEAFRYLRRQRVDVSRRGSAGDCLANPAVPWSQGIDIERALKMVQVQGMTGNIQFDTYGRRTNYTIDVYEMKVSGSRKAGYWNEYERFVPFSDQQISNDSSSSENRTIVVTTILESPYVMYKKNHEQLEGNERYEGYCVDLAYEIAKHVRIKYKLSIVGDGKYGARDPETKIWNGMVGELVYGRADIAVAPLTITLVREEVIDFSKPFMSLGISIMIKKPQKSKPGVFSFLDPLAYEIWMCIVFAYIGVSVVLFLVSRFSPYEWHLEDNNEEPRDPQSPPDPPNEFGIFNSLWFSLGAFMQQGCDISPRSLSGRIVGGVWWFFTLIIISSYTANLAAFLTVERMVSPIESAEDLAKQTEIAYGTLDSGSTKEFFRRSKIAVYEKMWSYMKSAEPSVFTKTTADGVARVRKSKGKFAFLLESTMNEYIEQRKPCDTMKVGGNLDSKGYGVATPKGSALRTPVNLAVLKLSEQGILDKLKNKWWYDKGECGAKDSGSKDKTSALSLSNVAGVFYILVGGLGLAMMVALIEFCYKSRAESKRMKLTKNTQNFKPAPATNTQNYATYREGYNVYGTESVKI
UniProt D3Z7H4: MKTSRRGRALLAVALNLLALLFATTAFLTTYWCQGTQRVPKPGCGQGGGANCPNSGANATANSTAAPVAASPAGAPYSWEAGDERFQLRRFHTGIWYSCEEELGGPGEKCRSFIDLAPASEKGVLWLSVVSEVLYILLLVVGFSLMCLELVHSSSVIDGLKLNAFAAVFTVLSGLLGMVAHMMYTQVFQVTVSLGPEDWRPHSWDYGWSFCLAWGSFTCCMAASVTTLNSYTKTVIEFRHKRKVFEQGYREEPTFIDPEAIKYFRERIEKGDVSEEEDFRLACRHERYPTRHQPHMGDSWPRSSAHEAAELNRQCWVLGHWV
UniProt O55017: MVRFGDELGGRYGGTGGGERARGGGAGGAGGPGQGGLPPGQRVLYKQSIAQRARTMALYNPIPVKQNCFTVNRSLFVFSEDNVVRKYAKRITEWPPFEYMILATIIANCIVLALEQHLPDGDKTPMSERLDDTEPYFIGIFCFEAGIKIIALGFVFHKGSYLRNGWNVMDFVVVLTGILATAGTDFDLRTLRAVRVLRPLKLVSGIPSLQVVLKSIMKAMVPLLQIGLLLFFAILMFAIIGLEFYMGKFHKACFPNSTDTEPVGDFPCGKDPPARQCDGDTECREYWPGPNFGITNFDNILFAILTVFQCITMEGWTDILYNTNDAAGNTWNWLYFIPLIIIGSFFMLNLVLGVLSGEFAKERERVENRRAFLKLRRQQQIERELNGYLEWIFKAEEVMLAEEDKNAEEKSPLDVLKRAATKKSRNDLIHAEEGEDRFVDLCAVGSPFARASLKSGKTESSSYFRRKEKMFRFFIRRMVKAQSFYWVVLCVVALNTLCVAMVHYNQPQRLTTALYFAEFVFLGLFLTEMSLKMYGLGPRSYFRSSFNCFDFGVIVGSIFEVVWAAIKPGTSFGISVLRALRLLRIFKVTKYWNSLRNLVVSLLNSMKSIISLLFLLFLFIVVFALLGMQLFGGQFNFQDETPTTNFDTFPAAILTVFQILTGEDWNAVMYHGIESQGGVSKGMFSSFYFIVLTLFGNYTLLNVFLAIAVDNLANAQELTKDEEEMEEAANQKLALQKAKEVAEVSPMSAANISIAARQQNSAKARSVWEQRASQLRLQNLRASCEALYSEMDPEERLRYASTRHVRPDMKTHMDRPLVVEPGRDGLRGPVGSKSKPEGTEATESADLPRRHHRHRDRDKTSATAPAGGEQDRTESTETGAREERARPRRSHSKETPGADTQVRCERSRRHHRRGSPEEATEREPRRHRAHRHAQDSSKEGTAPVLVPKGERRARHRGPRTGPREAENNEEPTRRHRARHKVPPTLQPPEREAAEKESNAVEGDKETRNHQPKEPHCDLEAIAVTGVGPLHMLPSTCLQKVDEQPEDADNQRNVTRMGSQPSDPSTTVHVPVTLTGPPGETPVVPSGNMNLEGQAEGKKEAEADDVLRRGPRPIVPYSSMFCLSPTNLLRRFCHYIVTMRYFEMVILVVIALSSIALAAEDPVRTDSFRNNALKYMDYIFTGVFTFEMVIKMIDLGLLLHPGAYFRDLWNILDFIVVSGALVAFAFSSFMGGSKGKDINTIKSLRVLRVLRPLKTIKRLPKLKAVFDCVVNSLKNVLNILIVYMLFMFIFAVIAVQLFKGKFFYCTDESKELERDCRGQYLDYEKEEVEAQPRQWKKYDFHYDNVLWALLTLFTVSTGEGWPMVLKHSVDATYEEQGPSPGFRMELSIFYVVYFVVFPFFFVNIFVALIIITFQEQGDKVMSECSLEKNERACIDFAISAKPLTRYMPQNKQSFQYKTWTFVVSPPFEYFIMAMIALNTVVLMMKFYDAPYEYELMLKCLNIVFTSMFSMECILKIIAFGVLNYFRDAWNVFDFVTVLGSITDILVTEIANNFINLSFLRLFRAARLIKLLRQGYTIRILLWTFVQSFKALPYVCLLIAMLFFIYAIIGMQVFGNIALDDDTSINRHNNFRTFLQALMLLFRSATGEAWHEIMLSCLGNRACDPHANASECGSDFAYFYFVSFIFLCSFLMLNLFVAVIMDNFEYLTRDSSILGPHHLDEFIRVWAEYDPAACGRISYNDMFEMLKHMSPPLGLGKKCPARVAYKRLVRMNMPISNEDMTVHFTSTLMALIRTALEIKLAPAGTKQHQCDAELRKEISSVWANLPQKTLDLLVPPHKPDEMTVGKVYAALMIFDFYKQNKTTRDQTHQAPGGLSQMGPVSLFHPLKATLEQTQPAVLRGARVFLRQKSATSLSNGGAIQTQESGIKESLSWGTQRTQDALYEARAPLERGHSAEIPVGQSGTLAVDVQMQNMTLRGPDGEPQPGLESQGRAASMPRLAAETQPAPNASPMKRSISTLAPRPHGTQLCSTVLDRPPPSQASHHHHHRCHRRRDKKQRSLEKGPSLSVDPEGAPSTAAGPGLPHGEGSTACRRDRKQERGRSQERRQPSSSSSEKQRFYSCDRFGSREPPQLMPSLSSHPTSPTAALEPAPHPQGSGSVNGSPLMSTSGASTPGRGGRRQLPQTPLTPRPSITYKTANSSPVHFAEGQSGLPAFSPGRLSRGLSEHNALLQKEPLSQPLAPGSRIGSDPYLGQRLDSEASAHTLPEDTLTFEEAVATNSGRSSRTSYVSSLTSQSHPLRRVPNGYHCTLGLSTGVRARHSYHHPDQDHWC

No constants are given. Whether binding was seen depends on the method and setting. In cells and extracts the contact can be indirect. These calls come from enrichment with a bait or labelling near it, and not all partners need be listed.

Assay [1] concerns the target Receptor-type tyrosine-protein phosphatase S (mouse (endogenous in mouse brain)) (UniProt B0V2N1). In words: affinity purification with mass spectrometry; reverse meAP-MS with 1-4 antibodies per target against constituents of the NRX interactome (PTPRS, T178B, CAH10, NXPH3, TAFA1, LRRT4, anti-HA for HA-Cbln1/2 and others); solubilised mouse brain membrane fractions; target knock-outs, wild-type brains or IgGs as controls, tnR threshold 0.25.

In assay [2] the target is Carbonic anhydrase-related protein 10 (mouse (endogenous in mouse brain)) (UniProt P61215). The assay is described as above.
Assay [3] concerns the target Receptor-type tyrosine-protein phosphatase S (mouse (endogenous in mouse brain)) (UniProt B0V2N1). In words: affinity purification with mass spectrometry; APs with anti-NRX1-3 and anti-PTPRS antibodies from solubilised ER-enriched membrane fractions of mouse brain.
Assay [4] deals with T1, Neurexophilin-3 (mouse (endogenous in mouse brain)) (UniProt Q91VX5).
T1 sequence: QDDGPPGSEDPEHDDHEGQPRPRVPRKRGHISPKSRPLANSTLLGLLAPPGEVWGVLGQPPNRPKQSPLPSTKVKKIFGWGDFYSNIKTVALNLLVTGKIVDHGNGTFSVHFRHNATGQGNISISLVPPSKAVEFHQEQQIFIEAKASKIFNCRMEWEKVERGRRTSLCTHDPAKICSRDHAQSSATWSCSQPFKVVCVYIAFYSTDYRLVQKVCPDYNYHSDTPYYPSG
Kind of assay: affinity purification with mass spectrometry; reverse meAP-MS with 1-4 antibodies per target against constituents of the NRX interactome (PTPRS, T178B, CAH10, NXPH3, TAFA1, LRRT4, anti-HA for HA-Cbln1/2 and others); solubilised mouse brain membrane fractions; target knock-outs, wild-type brains or IgGs as controls, tnR threshold 0.25.

For assay [5], the target named is T2, Leucine-rich repeat transmembrane neuronal protein 4 (mouse (endogenous in mouse brain)) (UniProt Q80XG9).
T2 sequence: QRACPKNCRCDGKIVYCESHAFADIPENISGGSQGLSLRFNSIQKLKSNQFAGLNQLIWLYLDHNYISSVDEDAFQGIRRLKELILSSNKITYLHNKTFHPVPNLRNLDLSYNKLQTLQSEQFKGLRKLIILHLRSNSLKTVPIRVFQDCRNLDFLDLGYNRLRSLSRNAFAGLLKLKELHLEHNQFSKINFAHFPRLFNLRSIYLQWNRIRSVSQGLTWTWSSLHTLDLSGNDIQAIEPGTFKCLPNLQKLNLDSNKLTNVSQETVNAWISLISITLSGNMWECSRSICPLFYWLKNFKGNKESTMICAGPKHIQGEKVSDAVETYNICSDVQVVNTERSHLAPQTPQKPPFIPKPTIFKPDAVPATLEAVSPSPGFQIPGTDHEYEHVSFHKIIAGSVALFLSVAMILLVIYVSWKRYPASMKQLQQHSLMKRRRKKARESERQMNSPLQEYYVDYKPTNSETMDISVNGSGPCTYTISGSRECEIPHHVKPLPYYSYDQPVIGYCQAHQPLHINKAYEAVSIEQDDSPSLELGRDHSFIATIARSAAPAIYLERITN
The assay is described as above.

In a further assay the target is T3, recombinant LRRT2 (UniProt O43300).
T3 sequence: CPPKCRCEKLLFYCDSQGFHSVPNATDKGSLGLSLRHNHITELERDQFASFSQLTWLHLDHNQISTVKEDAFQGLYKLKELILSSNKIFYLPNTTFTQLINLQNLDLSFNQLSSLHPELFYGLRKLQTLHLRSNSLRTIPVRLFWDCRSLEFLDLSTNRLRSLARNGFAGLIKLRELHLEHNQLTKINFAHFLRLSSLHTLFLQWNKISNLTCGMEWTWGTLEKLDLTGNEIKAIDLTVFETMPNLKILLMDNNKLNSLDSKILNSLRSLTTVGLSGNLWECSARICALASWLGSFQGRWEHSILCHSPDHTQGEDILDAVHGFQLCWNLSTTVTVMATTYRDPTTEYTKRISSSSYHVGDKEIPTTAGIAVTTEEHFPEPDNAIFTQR
Kind of assay: affinity purification with mass spectrometry; 15 µg recombinant LRRT2 pre-coupled to protein A Dynabeads as affinity matrix; solubilised mouse brain membrane fractions; only the target purified.

For the substance NOE1 (from UniProt O88998 17-485), the binding entry in assay [1] and in assay [2] was “binds” in each case. For “Glutamate (AMPA-type) receptor 3, GluA3 (from UniProt Q9Z2W9 23-888)”, the binding result in assay [1] and in assay [2] was “binds” in each case. On to liprin-α2 (from UniProt Q8BSS9 1-1257), for which the binding entry in assay [3] is “binds”. Take “Carbonic anhydrase-related protein 10 (from UniProt P61215)”: in assay [3], the binding result is on record as “binds”. Take “Transmembrane protein 178B (mouse (endogenous in mouse brain))”: the binding entry (in assay [4]; in assay [5]; with recombinant LRRT2) was “binds” each time. GSG1l (from UniProt D3Z7H4 1-322): the binding result in assay [1], in assay [5] and in assay [2] was “binds” in each case. For Cav2.2 (from UniProt O55017 1-2327), in assay [3], the binding entry is reported as “binds”.
